Measurements as given in the supplement of paper PMC10849652.
This is one part of the list.

Chains of the proteins cited; added tags and fusions are not shown. Lines headed by an entry give the natural chain unless they say otherwise; changes in a name come on top.
UniProt Q9Y3E0: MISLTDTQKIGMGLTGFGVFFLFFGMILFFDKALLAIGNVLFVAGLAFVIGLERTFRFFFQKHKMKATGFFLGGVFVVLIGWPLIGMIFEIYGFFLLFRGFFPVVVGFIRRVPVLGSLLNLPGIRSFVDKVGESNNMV
UniProt Q7Z2K8: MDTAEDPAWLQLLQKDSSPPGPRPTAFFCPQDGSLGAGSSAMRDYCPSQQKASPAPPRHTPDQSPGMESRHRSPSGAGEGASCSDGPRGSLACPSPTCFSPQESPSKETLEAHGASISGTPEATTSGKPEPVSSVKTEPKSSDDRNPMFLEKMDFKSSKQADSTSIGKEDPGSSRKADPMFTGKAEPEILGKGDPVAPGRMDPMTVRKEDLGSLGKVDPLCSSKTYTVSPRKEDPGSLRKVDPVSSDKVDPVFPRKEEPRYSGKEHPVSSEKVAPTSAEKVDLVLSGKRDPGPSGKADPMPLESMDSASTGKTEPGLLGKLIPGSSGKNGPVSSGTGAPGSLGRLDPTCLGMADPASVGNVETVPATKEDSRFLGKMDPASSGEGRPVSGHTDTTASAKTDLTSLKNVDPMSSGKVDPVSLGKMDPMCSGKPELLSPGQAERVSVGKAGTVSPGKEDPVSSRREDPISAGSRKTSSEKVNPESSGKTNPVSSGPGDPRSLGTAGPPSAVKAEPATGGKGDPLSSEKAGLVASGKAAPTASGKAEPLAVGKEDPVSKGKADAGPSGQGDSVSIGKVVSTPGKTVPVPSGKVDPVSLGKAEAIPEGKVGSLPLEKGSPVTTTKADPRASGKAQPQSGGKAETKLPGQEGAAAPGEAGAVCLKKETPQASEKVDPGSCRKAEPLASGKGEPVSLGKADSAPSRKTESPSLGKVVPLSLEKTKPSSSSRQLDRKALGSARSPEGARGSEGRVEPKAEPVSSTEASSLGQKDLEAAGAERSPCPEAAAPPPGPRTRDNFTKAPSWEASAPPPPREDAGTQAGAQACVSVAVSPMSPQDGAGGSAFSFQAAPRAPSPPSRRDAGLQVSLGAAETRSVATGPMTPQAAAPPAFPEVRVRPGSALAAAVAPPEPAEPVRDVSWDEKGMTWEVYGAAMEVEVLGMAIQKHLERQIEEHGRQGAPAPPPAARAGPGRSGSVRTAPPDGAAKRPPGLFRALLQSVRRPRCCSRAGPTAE
UniProt Q9Y223: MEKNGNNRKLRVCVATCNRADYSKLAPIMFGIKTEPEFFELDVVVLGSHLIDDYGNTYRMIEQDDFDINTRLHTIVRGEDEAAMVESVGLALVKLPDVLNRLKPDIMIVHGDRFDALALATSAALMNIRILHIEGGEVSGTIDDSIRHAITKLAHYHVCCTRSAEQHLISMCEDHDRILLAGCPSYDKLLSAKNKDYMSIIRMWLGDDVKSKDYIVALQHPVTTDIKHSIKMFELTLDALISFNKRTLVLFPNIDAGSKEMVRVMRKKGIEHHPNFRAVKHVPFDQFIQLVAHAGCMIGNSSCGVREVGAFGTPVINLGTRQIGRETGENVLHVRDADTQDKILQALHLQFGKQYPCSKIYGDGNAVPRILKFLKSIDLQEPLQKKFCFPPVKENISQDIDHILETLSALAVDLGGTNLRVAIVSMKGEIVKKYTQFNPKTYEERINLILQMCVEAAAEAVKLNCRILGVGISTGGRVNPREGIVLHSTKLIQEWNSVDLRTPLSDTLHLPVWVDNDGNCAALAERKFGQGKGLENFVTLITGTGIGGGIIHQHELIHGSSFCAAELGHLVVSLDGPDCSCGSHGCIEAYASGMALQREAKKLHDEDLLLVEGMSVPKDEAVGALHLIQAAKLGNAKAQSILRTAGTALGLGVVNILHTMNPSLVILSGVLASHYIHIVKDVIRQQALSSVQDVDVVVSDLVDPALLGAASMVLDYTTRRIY
UniProt P50148, whole entry, looked up: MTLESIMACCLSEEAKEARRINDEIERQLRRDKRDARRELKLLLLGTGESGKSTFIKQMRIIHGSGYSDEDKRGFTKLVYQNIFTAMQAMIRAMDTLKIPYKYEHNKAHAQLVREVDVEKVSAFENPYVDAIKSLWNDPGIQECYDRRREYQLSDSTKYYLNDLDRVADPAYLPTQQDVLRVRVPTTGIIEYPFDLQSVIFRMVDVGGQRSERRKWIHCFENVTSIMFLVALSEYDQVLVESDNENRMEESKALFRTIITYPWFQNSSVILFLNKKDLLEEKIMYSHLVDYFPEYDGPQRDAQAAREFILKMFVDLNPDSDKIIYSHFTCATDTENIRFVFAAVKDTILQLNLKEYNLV
UniProt Q53EU6: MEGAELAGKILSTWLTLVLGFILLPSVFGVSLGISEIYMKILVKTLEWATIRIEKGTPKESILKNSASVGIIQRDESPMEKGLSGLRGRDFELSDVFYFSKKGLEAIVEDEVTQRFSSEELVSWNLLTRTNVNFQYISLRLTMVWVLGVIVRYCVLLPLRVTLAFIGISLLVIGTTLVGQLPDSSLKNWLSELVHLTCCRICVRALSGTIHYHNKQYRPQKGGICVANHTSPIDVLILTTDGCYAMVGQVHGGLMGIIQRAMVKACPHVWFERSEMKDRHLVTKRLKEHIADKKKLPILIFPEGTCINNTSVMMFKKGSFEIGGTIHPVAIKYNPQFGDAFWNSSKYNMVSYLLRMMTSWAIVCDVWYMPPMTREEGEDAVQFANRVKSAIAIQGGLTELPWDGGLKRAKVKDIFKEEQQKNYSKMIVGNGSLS
UniProt Q8N954: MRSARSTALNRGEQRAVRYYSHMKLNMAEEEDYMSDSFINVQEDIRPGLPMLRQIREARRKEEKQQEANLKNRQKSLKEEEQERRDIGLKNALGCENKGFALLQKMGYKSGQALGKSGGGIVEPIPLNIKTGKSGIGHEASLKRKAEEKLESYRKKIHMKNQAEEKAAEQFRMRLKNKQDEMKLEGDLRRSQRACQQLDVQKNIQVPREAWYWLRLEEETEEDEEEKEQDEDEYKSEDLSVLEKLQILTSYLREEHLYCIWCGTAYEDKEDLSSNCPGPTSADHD
UniProt P17174: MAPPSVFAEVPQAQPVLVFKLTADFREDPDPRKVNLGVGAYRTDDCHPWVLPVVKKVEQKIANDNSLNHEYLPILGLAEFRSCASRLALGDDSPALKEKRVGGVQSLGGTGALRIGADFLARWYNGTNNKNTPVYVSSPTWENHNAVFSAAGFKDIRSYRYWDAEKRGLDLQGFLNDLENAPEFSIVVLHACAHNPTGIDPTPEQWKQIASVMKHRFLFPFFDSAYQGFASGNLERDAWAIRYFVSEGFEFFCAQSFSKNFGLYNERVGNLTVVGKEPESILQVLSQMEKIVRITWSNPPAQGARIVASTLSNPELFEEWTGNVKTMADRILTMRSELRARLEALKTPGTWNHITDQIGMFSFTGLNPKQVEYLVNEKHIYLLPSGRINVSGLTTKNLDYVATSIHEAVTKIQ
UniProt Q92896: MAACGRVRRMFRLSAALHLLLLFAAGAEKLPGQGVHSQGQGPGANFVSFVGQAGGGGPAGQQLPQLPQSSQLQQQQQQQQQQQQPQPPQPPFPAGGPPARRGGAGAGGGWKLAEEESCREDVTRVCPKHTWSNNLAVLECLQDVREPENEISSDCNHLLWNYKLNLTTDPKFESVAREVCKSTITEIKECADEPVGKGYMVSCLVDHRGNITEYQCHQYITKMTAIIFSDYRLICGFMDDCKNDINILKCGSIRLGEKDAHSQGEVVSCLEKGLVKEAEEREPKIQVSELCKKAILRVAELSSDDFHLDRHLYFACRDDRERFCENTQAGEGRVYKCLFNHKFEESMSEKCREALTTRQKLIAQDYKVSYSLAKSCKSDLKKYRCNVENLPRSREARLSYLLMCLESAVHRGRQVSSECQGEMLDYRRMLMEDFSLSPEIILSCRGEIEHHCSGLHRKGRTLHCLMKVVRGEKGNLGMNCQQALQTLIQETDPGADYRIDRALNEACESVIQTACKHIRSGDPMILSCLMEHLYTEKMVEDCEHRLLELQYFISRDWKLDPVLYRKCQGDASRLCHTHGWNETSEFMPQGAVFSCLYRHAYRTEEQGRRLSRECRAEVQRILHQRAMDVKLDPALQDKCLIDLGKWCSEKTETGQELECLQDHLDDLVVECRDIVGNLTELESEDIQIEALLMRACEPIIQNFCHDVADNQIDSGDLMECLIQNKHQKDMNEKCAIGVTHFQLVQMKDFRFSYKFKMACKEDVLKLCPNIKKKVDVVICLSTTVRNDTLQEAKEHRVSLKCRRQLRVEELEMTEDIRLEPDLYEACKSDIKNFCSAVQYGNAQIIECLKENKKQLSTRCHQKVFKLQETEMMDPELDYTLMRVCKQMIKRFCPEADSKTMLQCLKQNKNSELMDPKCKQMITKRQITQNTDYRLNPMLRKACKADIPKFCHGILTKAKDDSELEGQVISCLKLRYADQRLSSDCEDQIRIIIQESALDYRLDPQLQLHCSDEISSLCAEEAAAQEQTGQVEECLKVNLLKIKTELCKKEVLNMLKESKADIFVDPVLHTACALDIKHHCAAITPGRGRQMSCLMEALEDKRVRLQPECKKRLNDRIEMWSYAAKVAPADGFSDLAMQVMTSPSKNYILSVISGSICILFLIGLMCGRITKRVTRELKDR
UniProt O60547: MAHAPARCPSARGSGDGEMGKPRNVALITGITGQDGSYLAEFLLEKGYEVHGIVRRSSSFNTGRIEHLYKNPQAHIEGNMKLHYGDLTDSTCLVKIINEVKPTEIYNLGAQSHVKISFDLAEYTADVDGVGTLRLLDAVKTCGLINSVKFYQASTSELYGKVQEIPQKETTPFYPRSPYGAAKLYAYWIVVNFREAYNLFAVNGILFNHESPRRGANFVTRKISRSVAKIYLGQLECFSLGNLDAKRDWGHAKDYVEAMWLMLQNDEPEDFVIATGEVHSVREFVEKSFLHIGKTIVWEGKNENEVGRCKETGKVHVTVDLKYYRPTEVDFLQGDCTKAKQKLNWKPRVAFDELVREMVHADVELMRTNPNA
UniProt Q9Y248: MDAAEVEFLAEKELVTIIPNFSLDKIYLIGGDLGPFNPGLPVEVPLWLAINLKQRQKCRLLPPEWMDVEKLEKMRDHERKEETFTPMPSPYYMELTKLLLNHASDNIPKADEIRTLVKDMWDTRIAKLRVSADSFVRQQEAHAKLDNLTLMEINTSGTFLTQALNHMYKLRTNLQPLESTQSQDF
UniProt Q9UKD1: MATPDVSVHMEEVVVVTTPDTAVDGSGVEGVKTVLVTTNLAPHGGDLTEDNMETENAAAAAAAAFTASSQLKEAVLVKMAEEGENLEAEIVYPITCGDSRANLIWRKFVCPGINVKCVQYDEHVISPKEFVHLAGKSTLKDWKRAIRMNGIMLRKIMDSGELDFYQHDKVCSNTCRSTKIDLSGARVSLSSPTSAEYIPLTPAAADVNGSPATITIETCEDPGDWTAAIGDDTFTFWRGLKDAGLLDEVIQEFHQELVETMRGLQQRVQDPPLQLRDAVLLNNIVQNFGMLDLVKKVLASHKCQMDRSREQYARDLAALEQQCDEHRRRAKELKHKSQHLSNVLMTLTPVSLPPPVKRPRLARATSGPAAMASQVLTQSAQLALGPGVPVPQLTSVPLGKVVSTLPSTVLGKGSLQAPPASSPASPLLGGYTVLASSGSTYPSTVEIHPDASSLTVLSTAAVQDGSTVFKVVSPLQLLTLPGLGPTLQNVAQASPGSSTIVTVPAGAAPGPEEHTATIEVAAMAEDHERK
UniProt P49840: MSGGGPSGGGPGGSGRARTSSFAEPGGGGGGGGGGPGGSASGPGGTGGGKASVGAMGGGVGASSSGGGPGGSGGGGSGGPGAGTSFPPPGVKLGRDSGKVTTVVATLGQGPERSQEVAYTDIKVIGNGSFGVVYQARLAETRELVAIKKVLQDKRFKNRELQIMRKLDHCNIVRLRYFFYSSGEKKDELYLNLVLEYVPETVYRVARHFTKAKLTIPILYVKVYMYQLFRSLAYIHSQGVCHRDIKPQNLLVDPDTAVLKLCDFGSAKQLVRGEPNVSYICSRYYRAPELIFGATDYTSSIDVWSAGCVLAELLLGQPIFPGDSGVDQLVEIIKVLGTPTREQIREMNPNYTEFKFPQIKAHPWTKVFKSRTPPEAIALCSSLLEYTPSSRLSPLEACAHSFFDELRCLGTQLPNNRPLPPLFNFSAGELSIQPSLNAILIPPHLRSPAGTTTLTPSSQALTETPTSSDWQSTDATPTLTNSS
UniProt Q92917: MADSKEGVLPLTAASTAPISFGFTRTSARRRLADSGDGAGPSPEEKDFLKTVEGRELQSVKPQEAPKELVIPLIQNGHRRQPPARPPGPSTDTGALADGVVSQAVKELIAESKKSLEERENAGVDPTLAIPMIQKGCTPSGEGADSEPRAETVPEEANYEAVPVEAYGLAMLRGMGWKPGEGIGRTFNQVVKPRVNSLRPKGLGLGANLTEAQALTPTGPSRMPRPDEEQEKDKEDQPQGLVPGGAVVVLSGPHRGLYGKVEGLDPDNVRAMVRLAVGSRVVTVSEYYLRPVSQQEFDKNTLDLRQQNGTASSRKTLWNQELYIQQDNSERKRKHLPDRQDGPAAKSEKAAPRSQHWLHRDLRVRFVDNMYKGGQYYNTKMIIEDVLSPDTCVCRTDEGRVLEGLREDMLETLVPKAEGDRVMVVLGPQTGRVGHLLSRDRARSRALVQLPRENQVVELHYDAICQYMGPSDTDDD

Assays:
Assay in all cases: log2 fold change, soluble protein after heating vs DMSO (PISA); higher = thermal stabilisation; K562 cells, 10 uM, 30 min; active = over 0.2 and 3.5 SD of the protein, either way, in both replicates (recomputed)
[1] = compound: CS(=O)(=O)c1ccc(-c2cnc(N)c(C(=O)Nc3ccccc3)n2)cc1
Method in brief: (§1)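 Aliquots of K562 cells (2×10^6 cells/mL) treated with 10 μM compound for 30 min were heated for 3 min over 48°C-58°C. After pooling and extraction in PBS with 0.5% NP-40 at 4°C, soluble protein from a 21,000xg, 90 min spin was quantified by TMTpro 16plex LC-MS/MS with channel sums equalised. Thermal stability is expressed against control samples, from duplicates, as a log2 fold change.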

crizotinib = compound: C[C@@H](Oc1cc(-c2cnn(C3CCNCC3)c2)cnc1N)c1c(Cl)ccc(F)c1Cl [crizotinib]
Method in brief: as §1

[2] = compound: C[C@@H]1COCCN1C2=NC(=NC(=C2)C3(CC3)S(=O)(=O)C)C4=C5C=CNC5=CC=C4
Method in brief: as §1

[3] = compound: C[C@H](C1=CC=C(C=C1)C(=O)NC2=C3C=CNC3=NC=C2)N
Method in brief: as §1

duvelisib = compound: C[C@H](Nc1ncnc2nc[nH]c12)c1cc2cccc(Cl)c2c(=O)n1-c1ccccc1 [duvelisib]
Method in brief: as §1

gandotinib = compound: Cc1cc(Nc2cc(CN3CCOCC3)c3nc(C)c(Cc4ccc(Cl)cc4F)n3n2)n[nH]1 [gandotinib]
Method in brief: as §1

tozasertib = compound: Cc1cc(Nc2cc(N3CCN(C)CC3)nc(Sc3ccc(NC(=O)C4CC4)cc3)n2)n[nH]1 [tozasertib]
Method in brief: as §1

[4] = compound: Cc1cc(SCc2sc(-c3ccc(C(F)(F)F)cc3)nc2C)ccc1OCC(=O)O
Method in brief: as §1

doramapimod = compound: Cc1ccc(-n2nc(C(C)(C)C)cc2NC(=O)Nc2ccc(OCCN3CCOCC3)c3ccccc23)cc1 [doramapimod]
Method in brief: as §1

ispinesib = compound: Cc1ccc(C(=O)N(CCCN)[C@@H](c2nc3cc(Cl)ccc3c(=O)n2Cc2ccccc2)C(C)C)cc1 [ispinesib]
Method in brief: as §1

Measured: log2 fold change

GOLT1B (UniProt Q9Y3E0)
inactive: [1] -0.041 | crizotinib 0.003 | [2] 0.022 | [3] -0.029 | duvelisib 0.004 | gandotinib -0.106 | tozasertib 0.019 | [4] -0.07 | doramapimod -0.029 | ispinesib -0.016

GRAP2 (UniProt O75791)
inactive: [1] -0.047 | crizotinib -0.042 | [2] -0.015 | [3] 0.1 | duvelisib 0.091 | gandotinib -0.027 | tozasertib -0.035 | [4] 0.172 | doramapimod -0.18 | ispinesib -0.066

GPRIN1 (UniProt Q7Z2K8)
inactive: [1] 0.011 | crizotinib 0.079 | [2] 0.062 | [3] -0.034 | duvelisib 0.136 | gandotinib -0.031 | tozasertib -0.083 | [4] -0.12 | doramapimod 0.012 | ispinesib 0.062

GNE isoform 2 (UniProt Q9Y223)
inactive: [1] 0.081 | crizotinib -0.145 | [2] 0.085 | [3] -0.006 | duvelisib 0.005 | gandotinib -0.141 | tozasertib -0.092 | [4] 0.008 | doramapimod 0.041 | ispinesib -0.018

GNB4 (UniProt Q9HAV0)
inactive: [1] 0.055 | crizotinib 0.188 | [2] 0.147 | [3] -0.04 | duvelisib -0.093 | gandotinib -0.101 | tozasertib -0.009 | [4] 0.005 | doramapimod -0.024 | ispinesib 0.172

GNAQ (UniProt P50148)
inactive: [1] 0.028 | crizotinib 0.126 | [2] 0.097 | [3] -0.086 | duvelisib -0.019 | gandotinib 0.001 | tozasertib -0.028 | [4] 0.046 | doramapimod -0.029 | ispinesib 0.048

GPAT3 (UniProt Q53EU6)
inactive: [1] 0.039 | crizotinib 0.166 | [2] -0.02 | [3] 0 | duvelisib 0.019 | tozasertib 0.012 | [4] -0.006 | doramapimod 0.059 | ispinesib 0.19

GPAA1 (UniProt O43292)
inactive: [1] 0.02 | crizotinib -0.026 | [2] 0.02 | [3] -0.027 | duvelisib 0.032 | gandotinib -0.203 | tozasertib 0.049 | [4] 0.019 | doramapimod 0.046 | ispinesib -0.012

GON4L (UniProt Q3T8J9)
inactive: [1] -0.021 | crizotinib 0.068 | [2] 0.042 | [3] 0.047 | duvelisib 0.056 | tozasertib -0.057 | [4] -0.189 | doramapimod -0.023

GLMN (UniProt Q92990)
inactive: [1] 0.038 | crizotinib -0.018 | [2] 0.027 | [3] -0.009 | duvelisib 0.001 | gandotinib 0.007 | tozasertib -0.011 | [4] -0.021 | doramapimod -0.007 | ispinesib 0.014

GRB2 (UniProt P62993)
inactive: [1] -0.047 | crizotinib 0.042 | [2] -0.037 | [3] -0.074 | duvelisib -0.021 | gandotinib -0.001 | tozasertib -0.001 | [4] -0.031 | doramapimod -0.008 | ispinesib 0.021

GPATCH11 (UniProt Q8N954)
inactive: [1] -0.016 | crizotinib -0.001 | [2] -0.058 | [3] 0.039 | duvelisib 0.089 | gandotinib 0.041 | tozasertib 0.046 | [4] 0.014 | doramapimod 0.02 | ispinesib -0.043

GMPR2 isoform 2 (UniProt Q9P2T1)
inactive: [1] 0.018 | crizotinib 0.084 | [2] 0.038 | [3] -0.094 | duvelisib 0.048 | gandotinib 0.027 | tozasertib -0.036 | [4] -0.053 | doramapimod -0.032 | ispinesib 0.018

GOT1 (UniProt P17174)
inactive: [1] 0.005 | crizotinib 0.011 | [2] 0.064 | [3] -0.062 | duvelisib 0.022 | gandotinib -0.019 | tozasertib -0.014 | [4] -0.008 | doramapimod -0.012 | ispinesib 0.019

GLRX5 (UniProt Q86SX6)
inactive: [1] 0.05 | crizotinib 0.033 | [2] 0.118 | [3] -0.093 | duvelisib 0.165 | tozasertib 0.154 | [4] 0.01 | doramapimod -0.048 | ispinesib 0.15

GPHN isoform 2 (UniProt Q9NQX3)
inactive: [1] 0.002 | crizotinib 0.014 | [2] -0.002 | [3] 0.001 | duvelisib 0.031 | gandotinib 0.085 | tozasertib -0.037 | [4] -0.014 | doramapimod 0.004 | ispinesib 0.035

GLG1 isoform 2 (UniProt Q92896)
inactive: [1] 0.013 | crizotinib 0.02 | [2] -0.003 | [3] -0.038 | duvelisib 0.049 | gandotinib -0.014 | tozasertib -0.017 | [4] -0.005 | doramapimod -0.025 | ispinesib 0.012

GOLIM4 (UniProt O00461)
inactive: [1] 0.079 | crizotinib -0.111 | [2] 0.035 | [3] 0.009 | duvelisib 0.063 | gandotinib 0.028 | tozasertib 0.017 | [4] -0.033 | doramapimod 0.046 | ispinesib -0.039

GM2A (UniProt P17900)
inactive: [1] 0.01 | crizotinib 0.121 | [2] 0.037 | [3] 0.019 | duvelisib 0.008 | gandotinib 0.039 | tozasertib 0.116 | [4] -0.046 | doramapimod -0.054 | ispinesib 0.031

GMDS (UniProt O60547)
inactive: [1] 0.023 | crizotinib 0.017 | [2] 0.093 | [3] -0.022 | duvelisib 0.037 | gandotinib -0.031 | tozasertib -0.022 | [4] -0.024 | doramapimod -0.008 | ispinesib -0.006

GRK2 (UniProt P25098)
inactive: [1] -0.018 | crizotinib -0.059 | [2] 0.069 | [3] 0 | duvelisib 0.027 | gandotinib -0.014 | tozasertib -0.032 | [4] 0.021 | doramapimod 0.007 | ispinesib 0.01

GMPS (UniProt P49915)
inactive: [1] 0.022 | crizotinib -0.119 | [2] 0.102 | [3] -0.033 | duvelisib 0.006 | gandotinib -0.125 | tozasertib -0.054 | [4] 0.015 | doramapimod 0.002 | ispinesib -0.006

GLB1 (UniProt P16278)
inactive: [1] 0.024 | [2] -0.074 | [3] 0.007 | gandotinib 0 | [4] -0.004 | doramapimod 0.013
active: crizotinib -0.221 | ispinesib -0.255

GINS2 (UniProt Q9Y248)
inactive: [1] -0.066 | crizotinib -0.036 | [2] -0.046 | [3] -0.15 | gandotinib 0.004 | [4] 0.247 | doramapimod 0.026 | ispinesib 0.167

GLUL (UniProt P15104)
active: [2] -0.267
inactive: [1] -0.07 | crizotinib 0.008 | [3] 0.062 | gandotinib -0.014 | [4] -0.047 | doramapimod -0.126 | ispinesib 0.005

GOLGA6B (UniProt A6NDN3)
inactive: [1] -0.003 | crizotinib 0.05 | [2] 0.036 | gandotinib 0.404 | doramapimod -0.139

GMEB2 (UniProt Q9UKD1)
inactive: [1] -0.012 | crizotinib 0.041 | [2] -0.063 | [3] -0.09 | gandotinib -0.001 | [4] 0.009 | doramapimod 0.053 | ispinesib 0.071

GSK3A (UniProt P49840)
active: [1] 0.322
inactive: crizotinib 0.129 | [2] 0.053 | [3] 0.015 | gandotinib 0.201 | [4] 0.015 | doramapimod -0.039 | ispinesib 0.072

GOPC (UniProt Q9HD26)
inactive: [1] 0.218 | crizotinib 0.293 | [2] -0.043 | [3] 0.294 | gandotinib 0.101 | [4] 0.091 | doramapimod 0.061 | ispinesib 0.038

GMEB1 (UniProt Q9Y692)
inactive: [1] -0.036 | crizotinib 0.02 | [2] 0.04 | [3] -0.045 | gandotinib -0.11 | [4] 0.049 | doramapimod -0.038 | ispinesib 0.01

GREB1 (UniProt Q4ZG55)
inactive: [1] 0.121 | crizotinib 0.163 | [2] -0.046 | [3] 0.12 | doramapimod -0.007

Two successive records already listed, for reference:
GMEB1 (UniProt Q9Y692)
inactive: [1] -0.036 | crizotinib 0.02 | [2] 0.04 | [3] -0.045 | gandotinib -0.11 | [4] 0.049 | doramapimod -0.038 | ispinesib 0.01

GREB1 (UniProt Q4ZG55)
inactive: [1] 0.121 | crizotinib 0.163 | [2] -0.046 | [3] 0.12 | doramapimod -0.007

(further entries)

GPKOW (UniProt Q92917)
inactive: [1] 0.004 | crizotinib -0.147 | [2] 0.104 | [3] -0.004 | gandotinib -0.094 | [4] 0.195 | doramapimod -0.03 | ispinesib -0.013

GNPAT (UniProt O15228)
inactive: [1] 0.029 | crizotinib -0.071 | [2] 0.087 | [3] -0.088 | gandotinib -0.076 | [4] 0.06 | doramapimod 0.034 | ispinesib -0.006
